Assay results reported in US8008433B2, “Methods for preventing or treating bone disorders” (Metabolic Pharmaceutical Limited, priority 2004, dated 2011).
At least one peptide structure holds a part that was inferred or is arguable (an end, a ring closure or a residue). Where a SMILES comes first, the peptide text is derived from it. Bridges are numbered along the chain shown (N, C = ends).

Columns and labels:
[1] = system: aged rat model for post-menopausal osteoporosis; assay: Femoral neck fracture test; type: in vivo, Sprague-Dawley rats (Rattus Norvegicus)
[2] = system: aged rat model for post-menopausal osteoporosis; assay: Vertebral compression of L5 (trabecular bone); type: in vivo, Sprague-Dawley rats (Rattus Norvegicus); conditions: low dose 0.75 mg/kg/day; p=0.05
Description: Ninety-six aged Sprague-Dawley rats were randomly assigned to one of eight groups. The first two groups were sham operated. Group 1 was kept as a Sham control and Group 2 was treated with 2.5 mg/kg/day of recombinant human GH (rhGH) (BresaGen). The remaining six groups arrived from Harlan, ovariectomized (OVX). This surgery was performed approximately 8 days before the commencement of treatment. Group 3 was left as a control for the OVX model. Group 4 was given a treatment of 2.5 mg/kg/day of rhGH. Group 5 was treated with a low dose of AOD peptide (LAOD) 0.75 mg/kg/day and Group 6 was treated with a high dose of AOD peptide (HAOD) 2.0 mg/kg/day. […]
Statistical analysis was performed using statistical software, SPSS (version 11.0). Comparisons involving two groups were analyzed by independent student's t-test. Multiple comparisons were analyzed by one-way ANOVA analysis using the pairwise comparison Protected Fisher's Least Significant Difference (LSD) post hoc test. […]
Digital images were taken and image analysis software (ImageJ 1.28u, NIH) was used to determine the height and cross-sectional area of the vertebral body. […] While preloading the samples, the distance between the platens was measured using digital calipers. The gauge length was then determined by subtracting the height of the jig with the distance between the platens. […]

[3] = system: aged rat model for post-menopausal osteoporosis; assay: Three-point bending of right femur (cortical bone); type: in vivo, Sprague-Dawley rats (Rattus Norvegicus)
[4] = system: aged rat model for post-menopausal osteoporosis; assay: Dual Energy X-ray Absorptiometry (DEXA) bone mineral density in OVX rats; type: in vivo, Sprague-Dawley rats (Rattus Norvegicus)
[5] = system: primary fetal rat osteoblasts; assay: Primary osteoblast proliferation assay (3H-thymidine incorporation); type: cell-based; conditions: 24 hours incubation, Student's t test
[6] = high dose 2.0 mg/kg/day s.c., 12 weeks

CC[C@H](C)[C@H](NC(=O)[C@H](CCCNC(=N)N)NC(=O)[C@H](CC(C)C)NC(=O)[C@@H](N)Cc1ccc(O)cc1)C(=O)N[C@H](C(=O)N[C@@H](CCC(N)=O)C(=O)N[C@H]1CSSC[C@@H](C(=O)NCC(=O)N[C@@H](Cc2ccccc2)C(=O)O)NC(=O)[C@H](CO)NC(=O)CNC(=O)[C@H](CCC(=O)O)NC(=O)[C@H](C(C)C)NC(=O)[C@H](CO)NC(=O)[C@H](CCCNC(=N)N)NC1=O)C(C)C [AOD, Tyr Leu Arg Ile Val Gln Cys Arg Ser Val Glu Gly Ser Cys Gly Phe] (H-YLRIVQCRSVEGSCGF-OH; disulfide 7-14; N-terminus and C-terminus assumed)
femoral neck strength compared to OVX ([1]; high dose 2.0 mg/kg/day): no difference in strength | femoral neck energy to failure, OVX compared to treated group ([1]; high dose 2.0 mg/kg/day, p=0.008): OVX group had a significantly higher energy to failure | femoral neck deformation, OVX compared to treated group ([1]; high dose 2.0 mg/kg/day, p=0.009): OVX rats had significantly higher deformation | femoral neck stiffness compared to OVX ([1]; high dose 2.0 mg/kg/day, p=0.023, significant): higher stiffness than OVX | femoral neck strength compared to OVX ([1]; low dose 0.75 mg/kg/day): no difference in strength | femoral neck energy to failure, OVX compared to treated group ([1]; low dose 0.75 mg/kg/day, p=0.013): OVX group had a significantly higher energy to failure | femoral neck deformation, OVX compared to treated group ([1]; low dose 0.75 mg/kg/day, p=0.017): OVX rats had significantly higher deformation | femoral neck stiffness compared to OVX ([1]; low dose 0.75 mg/kg/day, p=0.092, not significant): higher stiffness than OVX | elastic modulus (vertebral compression L5) compared to OVX control [2]: higher | elastic modulus (three-point bending, femur) compared to OVX ([3]; high dose 2.0 mg/kg/day): similar | failure strain (three-point bending, femur) compared to OVX ([3]; high dose 2.0 mg/kg/day): similar | ultimate stress (three-point bending, femur) compared to OVX control ([3]; high dose 2.0 mg/kg/day, trend to higher ultimate stress p=0.076): no significant difference | failure strain (three-point bending, femur) compared to OVX ([3]; low dose 0.75 mg/kg/day, p=0.005): lower | elastic modulus (three-point bending, femur) compared to OVX ([3]; low dose 0.75 mg/kg/day, p=0.014): higher | ultimate stress (three-point bending, femur) compared to OVX control ([3]; low dose 0.75 mg/kg/day, trend to higher ultimate stress p=0.062): no significant difference | femoral BMD, high dose group compared to low dose group ([4]; 2.0 vs 0.75 mg/kg/day s.c., 12 weeks, p=0.013): significantly lower | effect on preventing bone loss ([4]; aged rat model, compared with estrogen): better than estrogen | BMD of lumbar vertebrae relative to sham control [4, 6]: returned to that of the sham control levels | femoral BMD compared to OVX control [4, 6]: did not produce any increase in BMD | BMD of lumbar vertebrae (L4+L5) compared to OVX control ([4]; high dose 2.0 mg/kg/day s.c., 12 weeks, p=0.05): increased BMD significantly | BMD of lumbar vertebrae relative to sham control ([4]; low dose 0.75 mg/kg/day s.c., 12 weeks): returned to that of the sham control levels | BMD of lumbar vertebrae (L4+L5) compared to OVX control ([4]; low dose 0.75 mg/kg/day s.c., 12 weeks, p=0.076): increased BMD significantly | femoral BMD compared to OVX control ([4]; low dose 0.75 mg/kg/day s.c., 12 weeks, p=0.107): trend for femoral BMD to increase | thymidine incorporation ([5]; 10^−9 M): significantly stimulated | thymidine incorporation ([5]; 10^−10 M): significantly stimulated
